These results are taken from article PMC4203352.

Amino acid sequences for entries named in this document (tags omitted). Residues count along the entry.
UniProt Q8NBS9, residues 33-432: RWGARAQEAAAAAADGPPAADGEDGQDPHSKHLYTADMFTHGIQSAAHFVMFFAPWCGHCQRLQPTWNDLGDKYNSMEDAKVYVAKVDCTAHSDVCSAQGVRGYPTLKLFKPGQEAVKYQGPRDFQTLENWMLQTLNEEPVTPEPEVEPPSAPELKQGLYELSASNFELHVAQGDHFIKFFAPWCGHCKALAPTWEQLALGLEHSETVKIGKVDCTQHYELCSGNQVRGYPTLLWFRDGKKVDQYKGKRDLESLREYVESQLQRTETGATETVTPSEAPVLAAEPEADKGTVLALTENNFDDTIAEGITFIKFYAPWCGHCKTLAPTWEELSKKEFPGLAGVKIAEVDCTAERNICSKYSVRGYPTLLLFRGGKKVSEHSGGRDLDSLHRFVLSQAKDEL

Assay [1] has as its target T1, Txnip, N-terminal tandem Strep/FLAG tag, stably expressed in HEK293F (UniProt Q9H3M7).
T1 sequence: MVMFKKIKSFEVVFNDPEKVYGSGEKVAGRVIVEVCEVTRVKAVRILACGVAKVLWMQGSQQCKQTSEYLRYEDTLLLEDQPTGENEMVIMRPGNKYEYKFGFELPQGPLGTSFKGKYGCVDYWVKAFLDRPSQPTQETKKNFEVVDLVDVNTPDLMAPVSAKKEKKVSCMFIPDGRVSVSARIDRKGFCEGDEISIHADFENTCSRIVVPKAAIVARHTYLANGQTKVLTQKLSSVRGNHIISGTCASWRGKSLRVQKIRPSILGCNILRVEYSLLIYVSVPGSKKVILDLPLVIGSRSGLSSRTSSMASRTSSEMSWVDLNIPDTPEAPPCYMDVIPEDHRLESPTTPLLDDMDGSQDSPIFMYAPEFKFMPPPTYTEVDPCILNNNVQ
Nature of the assay: affinity purification with mass spectrometry; HEK293F cells stably transduced with Strep/FLAG-Txnip or empty vector, suspension culture; Streptactin resin columns; eluates by SDS-PAGE and mass spectrometry.

Assay [2] concerns the target T2, Txnip, N-terminal tandem Strep/FLAG tag, stably expressed in HEK293F, Q9H3M7.
T2 chain: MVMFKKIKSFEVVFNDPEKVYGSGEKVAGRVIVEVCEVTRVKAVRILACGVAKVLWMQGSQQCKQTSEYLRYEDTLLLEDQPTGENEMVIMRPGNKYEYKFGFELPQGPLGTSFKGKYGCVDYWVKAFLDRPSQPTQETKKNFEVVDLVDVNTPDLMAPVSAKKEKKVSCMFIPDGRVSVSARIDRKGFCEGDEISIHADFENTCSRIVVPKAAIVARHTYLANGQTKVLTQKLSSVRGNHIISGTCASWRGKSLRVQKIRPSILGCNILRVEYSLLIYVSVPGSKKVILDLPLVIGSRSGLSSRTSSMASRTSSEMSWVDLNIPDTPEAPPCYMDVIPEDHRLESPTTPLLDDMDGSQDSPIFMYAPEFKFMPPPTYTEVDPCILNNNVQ
The description is as above. The conditions noted are these: remark: other sources report otherwise.

No constants are given. Whether binding was seen depends on the method and setting. Binding seen in cells or lysates may run through a third protein. Here binding means that the protein was enriched with, or labelled near, the bait; the list need not be complete. Tags and fused reporters may be left off the sequences shown.

Regarding “Pdia15, endogenous (from UniProt Q8NBS9 33-432) (enzyme)”, in assay [1], the binding entry is given as “binds”.

B1: Txn (thioredoxin), endogenous, P10599 1-105 (protein)
chain: MVKQIESKTAFQEALDAAGDKLVVVDFSATWCGPCKMIKPFFHSLSEKYSNVIFLEVDVDDCQDVASECEVKCMPTFQFFKKGQKVGEFSGANKEKLEATINELV
Take B1: the binding result in assay [2] was “binds”.

B2: Pdia4, endogenous (enzyme, UniProt P13667 21-645)
chain: VAGAEGPDEDSSNRENAIEDEEEEEEEDDDEEEDDLEVKEENGVLVLNDANFDNFVADKDTVLLEFYAPWCGHCKQFAPEYEKIANILKDKDPPIPVAKIDATSASVLASRFDVSGYPTIKILKKGQAVDYEGSRTQEEIVAKVREVSQPDWTPPPEVTLVLTKENFDEVVNDADIILVEFYAPWCGHCKKLAPEYEKAAKELSKRSPPIPLAKVDATAETDLAKRFDVSGYPTLKIFRKGRPYDYNGPREKYGIVDYMIEQSGPPSKEILTLKQVQEFLKDGDDVIIIGVFKGESDPAYQQYQDAANNLREDYKFHHTFSTEIAKFLKVSQGQLVVMQPEKFQSKYEPRSHMMDVQGSTQDSAIKDFVLKYALPLVGHRKVSNDAKRYTRRPLVVVYYSVDFSFDYRAATQFWRSKVLEVAKDFPEYTFAIADEEDYAGEVKDLGLSESGEDVNAAILDESGKKFAMEPEEFDSDTLREFVTAFKKGKLKPVIKSQPVPKNNKGPVKVVVGKTFDSIVMDPKKDVLIEFYAPWCGHCKQLEPVYNSLAKKYKGQKGLVIAKMDATANDVPSDRYKVEGFPTIYFAPSGDKKNPVKFEGGDRDLEHLSKFIEEHATKLSRTKEEL
Regarding B2, the binding result in assay [1] is listed as “binds”.

B3: Txn2, endogenous (protein, UniProt Q99757 60-166)
chain: TTFNIQDGPDFQDRVVNSETPVVVDFHAQWCGPCKILGPRLEKMVAKQHGKVVMAKVDIDDHTDLAIEYEVSAVPTVLAMKNGDVVDKFVGIKDEDQLEAFLKKLIG
For B3, the binding result in assay [1] is recorded as “binds”.

B4: endogenous PDIA6 (enzyme, UniProt Q15084 20-440)
chain: LYSSSDDVIELTPSNFNREVIQSDSLWLVEFYAPWCGHCQRLTPEWKKAATALKDVVKVGAVDADKHHSLGGQYGVQGFPTIKIFGSNKNRPEDYQGGRTGEAIVDAALSALRQLVKDRLGGRSGGYSSGKQGRSDSSSKKDVIELTDDSFDKNVLDSEDVWMVEFYAPWCGHCKNLEPEWAAAASEVKEQTKGKVKLAAVDATVNQVLASRYGIRGFPTIKIFQKGESPVDYDGGRTRSDIVSRALDLFSDNAPPPELLEIINEDIAKRTCEEHQLCVVAVLPHILDTGAAGRNSYLEVLLKLADKYKKKMWGWLWTEAGAQSELETALGIGGFGYPAMAAINARKMKFALLKGSFSEQGINEFLRELSFGRGSTAPVGGGAFPTIVEREPWDGRDGELPVEDDIDLSDVELDDLGKDEL
For the molecule B4, in assay [1], the binding entry is “binds”.
